These are yes or no findings as the source states them, for the method shown. Some binding calls cover weakened binding; strength is not graded here.
Target: human Cripto (CRIPTO antigen on GEO human colon adenocarcinoma cells) (human) (UniProt P13385)
Test: assay not described

Chains of the proteins cited; added tags and fusions are not shown. Lines headed by an entry give the natural chain unless they say otherwise; changes in a name come on top.
UniProt P13385: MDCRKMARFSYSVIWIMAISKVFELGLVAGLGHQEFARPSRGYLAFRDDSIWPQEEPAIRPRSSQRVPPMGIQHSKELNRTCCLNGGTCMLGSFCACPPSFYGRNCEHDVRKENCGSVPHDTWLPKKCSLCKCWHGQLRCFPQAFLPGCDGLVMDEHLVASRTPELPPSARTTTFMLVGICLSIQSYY

binding: binds
B1: Full-length Version 2, huB3F6 L1/H2 (version 1 light chain and version 2 heavy chain) (antibody, human IgG1, V domains shown)
VH: EVQLVESGAEVKKPGASVKVSCKASGYTFTSYWIHWVRQAPGQGLEWMGENDPSNGRTNYNEKFKNRVTLTVDTSISTAYMELSRLRSDDTAVYYCARGPNYFYSMDYWGQGTMVTVSS
VL: DFVMTQSPLSLPVTPGEPASISCRSSQSIVHSNGNTYLEWYLQKPGQSPQLLIYKVSNRFSGVPDRFSGSGSGTDFTLKISRVEAEDVGVYYCFQGSHVPLTFGQGTKLEIKR

Source: patent US20100008906A1
